Measured values reported in US20220220204A1.
Numbering of substitutions follows the chain as printed. No constants are given. Whether binding was seen depends on the method and setting. Some binding calls cover weakened binding; strength is not graded here. Values belong to the binder of their own block, whether it stands above or below them.

Sequences of proteins named here, by UniProt entry; tags and fusion partners are left off. Residues count along the entry.
UniProt Q9NZQ7, residues 19-290: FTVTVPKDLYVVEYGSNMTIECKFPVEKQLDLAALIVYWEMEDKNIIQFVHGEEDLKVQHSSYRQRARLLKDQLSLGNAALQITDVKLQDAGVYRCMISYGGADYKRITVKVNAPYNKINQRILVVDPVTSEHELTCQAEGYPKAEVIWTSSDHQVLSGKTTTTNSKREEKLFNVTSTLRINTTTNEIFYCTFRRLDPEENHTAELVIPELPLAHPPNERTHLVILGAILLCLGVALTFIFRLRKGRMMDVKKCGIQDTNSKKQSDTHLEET

Legend:
[1] = molecular target: PD-L1 expressed on CHO-K1 cells (UniProt Q9NZQ7); assay: FACS on CHO-K1 cells expressing PD-L1, control (FIG. 5)
[2] = molecular target: PD-L1 expressed on CHO-K1 cells (UniProt Q9NZQ7); assay: FACS on CHO-K1 cells expressing PD-L1, control (FIG. 9)

binding [1]: binds
B1: PDL1HCv5 (antibody, human IgG1, kappa, N297A, V domains shown)
VH: EVQLVQSGAEVKKPGASVKVSCKASGYIFTGYGITWVRQAPGQGLEWMGEIFPRRVQTYYSEKFKGRVTMTADTSTSTAYMELRSLRSDDTAVYYCARDYDPYFALDYWGQGTTVTVSS
VL: DIQMTQSPSSLSASVGDRVTITCRASQDVSTAVDWYQQKPGKAPKLLIYSASYRYTGVPDRFSGSGSGTDFTFTISSLQPEDIATYYCQQHYSIPFTFGQGTKLEIKR

binding [2]: binds
binding [1]: binds
B2: PDL1HCv1 (antibody, human IgG1, kappa, N297A, V domains shown)
VH: B1 VH with A72T
VL: B1 VL
